# ± gives the standard deviation of the averaged measurements. This is a selection; strong and weak results do not stand in their true shares.
# Molecular target: T1, UniProt Q8N0U8 and related entries
# T1 sequence (whole entry): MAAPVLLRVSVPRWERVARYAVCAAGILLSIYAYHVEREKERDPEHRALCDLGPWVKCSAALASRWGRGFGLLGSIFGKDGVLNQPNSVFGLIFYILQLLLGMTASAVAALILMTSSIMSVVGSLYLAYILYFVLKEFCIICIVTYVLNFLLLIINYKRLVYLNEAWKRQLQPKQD
# Experiment: NP40-soluble protein abundance relative to vehicle (solubility fold change) (ratio); higher = more soluble protein in presence of ATP
# Outline: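 Jurkat crude lysate (Dounce-homogenised) was treated with eight concentrations from 0.1 to 10 mM for 10 min at room temperature, then 3 min at 37 °C. It was solubilised with 0.8% NP40 and benzonase (60 min, 4 °C) and ultracentrifuged, and the supernatant was TMT-labelled for LC-MS/MS. Intensities were vsn-normalised, and the value is the fold change against the NP40-processed vehicle per replicate, from three independent experiments.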
smiles,measurement,setting,value
Nc1ncnc2c1ncn2[C@@H]1O[C@H](COP(=O)(O)OP(=O)(O)OP(=O)(O)O)[C@@H](O)[C@H]1O [adenosine triphosphate],NP40-soluble protein abundance,concentration: 1mM,0.873 ± 0.077
same,NP40-soluble protein abundance,concentration: 2mM,0.969 ± 0.066
same,NP40-soluble protein abundance,concentration: 4mM,1.04 ± 0.1
same,NP40-soluble protein abundance,concentration: 6mM,0.837 ± 0.1
same,NP40-soluble protein abundance,concentration: 8mM,0.925 ± 0.027
same,NP40-soluble protein abundance,concentration: 10mM,0.976 ± 0.029

# Reference: the supplement of paper PMC6411743
